Some of the results follow.
compound: COc1ccc(Cn2ccc3ccc(C(=O)NO)cc32)cc1; assay: dose-dependent thermal stabilisation call (2D-TPP, DLPTP, 10% FDR) (binary (1 = stabilised)); higher = stabilised by the compound; conditions: system: HL-60 intact cells; concentration range 0.04-10 µM

By UniProt entry, the sequences of proteins in these tests, tags left out. Where a name states a change or a piece, a line headed by the entry shows the natural chain unless it says otherwise.
UniProt P32189: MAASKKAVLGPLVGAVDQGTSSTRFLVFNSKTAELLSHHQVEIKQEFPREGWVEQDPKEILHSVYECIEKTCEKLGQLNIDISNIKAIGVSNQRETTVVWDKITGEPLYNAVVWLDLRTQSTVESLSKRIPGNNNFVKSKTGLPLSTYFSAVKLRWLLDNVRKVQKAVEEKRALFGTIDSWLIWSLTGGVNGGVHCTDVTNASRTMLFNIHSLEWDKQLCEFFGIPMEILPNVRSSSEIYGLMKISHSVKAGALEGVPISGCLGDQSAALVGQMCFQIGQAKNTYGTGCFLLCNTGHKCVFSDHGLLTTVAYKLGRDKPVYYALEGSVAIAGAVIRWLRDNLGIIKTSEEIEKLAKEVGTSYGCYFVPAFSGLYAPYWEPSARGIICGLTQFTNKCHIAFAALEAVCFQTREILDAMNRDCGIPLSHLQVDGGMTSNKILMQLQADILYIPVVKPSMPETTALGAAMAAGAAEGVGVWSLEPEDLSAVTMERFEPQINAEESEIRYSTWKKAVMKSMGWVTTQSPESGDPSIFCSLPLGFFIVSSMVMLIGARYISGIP
UniProt Q9NQX3: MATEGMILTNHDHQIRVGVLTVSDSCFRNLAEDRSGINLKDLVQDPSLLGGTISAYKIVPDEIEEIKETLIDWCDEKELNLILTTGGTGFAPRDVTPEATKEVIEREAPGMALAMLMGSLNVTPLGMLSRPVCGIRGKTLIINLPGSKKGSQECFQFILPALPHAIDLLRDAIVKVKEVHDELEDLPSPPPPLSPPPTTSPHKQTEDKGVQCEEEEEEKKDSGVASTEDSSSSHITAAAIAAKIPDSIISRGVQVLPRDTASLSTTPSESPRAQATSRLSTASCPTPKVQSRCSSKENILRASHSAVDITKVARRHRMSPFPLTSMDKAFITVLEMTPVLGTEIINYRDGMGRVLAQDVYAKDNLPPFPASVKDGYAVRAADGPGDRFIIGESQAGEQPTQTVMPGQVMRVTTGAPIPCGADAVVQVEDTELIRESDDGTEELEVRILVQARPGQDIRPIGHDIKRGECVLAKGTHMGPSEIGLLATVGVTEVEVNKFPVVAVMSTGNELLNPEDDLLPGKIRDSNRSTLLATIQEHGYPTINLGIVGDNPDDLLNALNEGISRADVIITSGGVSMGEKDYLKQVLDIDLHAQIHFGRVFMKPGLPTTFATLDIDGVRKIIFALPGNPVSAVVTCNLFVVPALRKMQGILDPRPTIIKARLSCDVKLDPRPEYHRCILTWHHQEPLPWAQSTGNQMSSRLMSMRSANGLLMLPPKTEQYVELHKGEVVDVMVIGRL
UniProt Q8WXD5: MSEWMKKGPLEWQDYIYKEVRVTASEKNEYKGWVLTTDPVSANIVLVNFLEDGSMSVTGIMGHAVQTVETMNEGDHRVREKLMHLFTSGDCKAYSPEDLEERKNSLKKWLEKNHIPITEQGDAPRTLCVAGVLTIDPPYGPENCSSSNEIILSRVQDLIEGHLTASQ
UniProt Q9BSH5: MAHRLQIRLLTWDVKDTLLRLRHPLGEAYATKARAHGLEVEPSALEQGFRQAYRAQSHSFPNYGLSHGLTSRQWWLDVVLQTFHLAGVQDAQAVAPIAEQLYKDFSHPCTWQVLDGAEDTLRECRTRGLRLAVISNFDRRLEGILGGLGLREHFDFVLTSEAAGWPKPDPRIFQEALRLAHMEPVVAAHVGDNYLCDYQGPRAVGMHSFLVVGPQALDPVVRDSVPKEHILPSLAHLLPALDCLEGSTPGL
UniProt P06396, whole entry: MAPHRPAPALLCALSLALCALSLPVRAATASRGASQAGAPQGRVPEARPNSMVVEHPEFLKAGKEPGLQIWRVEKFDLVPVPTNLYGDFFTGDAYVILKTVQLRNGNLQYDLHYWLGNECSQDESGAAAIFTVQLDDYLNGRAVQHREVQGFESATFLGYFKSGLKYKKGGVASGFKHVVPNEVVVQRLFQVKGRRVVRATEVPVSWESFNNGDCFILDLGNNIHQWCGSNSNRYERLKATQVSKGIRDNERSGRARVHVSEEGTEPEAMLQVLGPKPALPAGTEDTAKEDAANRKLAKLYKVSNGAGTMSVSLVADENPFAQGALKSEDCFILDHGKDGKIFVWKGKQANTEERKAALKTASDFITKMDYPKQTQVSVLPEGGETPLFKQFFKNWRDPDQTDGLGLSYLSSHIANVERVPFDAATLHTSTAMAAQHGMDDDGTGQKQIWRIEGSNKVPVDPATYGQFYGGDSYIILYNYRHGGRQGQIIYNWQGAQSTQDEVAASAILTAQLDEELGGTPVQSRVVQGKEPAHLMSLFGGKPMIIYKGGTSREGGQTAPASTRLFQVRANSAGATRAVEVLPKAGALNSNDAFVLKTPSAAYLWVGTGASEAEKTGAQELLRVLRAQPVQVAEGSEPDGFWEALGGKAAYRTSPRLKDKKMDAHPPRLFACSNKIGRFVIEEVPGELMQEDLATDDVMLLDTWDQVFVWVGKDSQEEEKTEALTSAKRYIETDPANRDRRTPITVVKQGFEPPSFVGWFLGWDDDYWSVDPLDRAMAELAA
UniProt Q9BY41: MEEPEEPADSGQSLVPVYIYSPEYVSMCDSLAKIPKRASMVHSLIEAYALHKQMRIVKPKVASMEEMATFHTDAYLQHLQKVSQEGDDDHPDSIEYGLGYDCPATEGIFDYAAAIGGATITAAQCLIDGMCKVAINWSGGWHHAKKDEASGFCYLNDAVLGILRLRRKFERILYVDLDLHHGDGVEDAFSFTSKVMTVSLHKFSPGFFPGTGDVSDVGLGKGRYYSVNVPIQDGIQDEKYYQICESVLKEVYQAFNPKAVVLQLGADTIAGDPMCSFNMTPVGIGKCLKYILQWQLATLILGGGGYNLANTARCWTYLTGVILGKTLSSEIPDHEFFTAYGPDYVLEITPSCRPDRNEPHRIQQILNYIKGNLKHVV
UniProt Q9NZ01: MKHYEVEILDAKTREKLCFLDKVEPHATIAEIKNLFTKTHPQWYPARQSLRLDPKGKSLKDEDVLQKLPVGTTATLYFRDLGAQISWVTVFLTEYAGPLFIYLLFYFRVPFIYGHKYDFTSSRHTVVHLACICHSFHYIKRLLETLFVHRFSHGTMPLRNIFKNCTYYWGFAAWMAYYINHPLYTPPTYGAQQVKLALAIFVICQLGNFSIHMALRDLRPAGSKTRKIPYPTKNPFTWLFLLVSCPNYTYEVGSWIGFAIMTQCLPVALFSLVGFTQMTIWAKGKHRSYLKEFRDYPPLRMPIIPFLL
UniProt P32249, whole entry: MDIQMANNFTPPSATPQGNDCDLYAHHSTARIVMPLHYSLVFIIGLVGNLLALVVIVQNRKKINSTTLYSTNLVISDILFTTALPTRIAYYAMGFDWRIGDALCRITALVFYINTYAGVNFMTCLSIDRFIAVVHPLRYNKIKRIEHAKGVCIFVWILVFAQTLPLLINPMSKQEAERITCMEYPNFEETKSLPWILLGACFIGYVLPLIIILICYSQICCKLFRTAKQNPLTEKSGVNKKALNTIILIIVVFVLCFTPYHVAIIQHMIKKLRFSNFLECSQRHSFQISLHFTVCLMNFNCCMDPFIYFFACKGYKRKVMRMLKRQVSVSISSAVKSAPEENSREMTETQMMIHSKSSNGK
UniProt Q9H4A6: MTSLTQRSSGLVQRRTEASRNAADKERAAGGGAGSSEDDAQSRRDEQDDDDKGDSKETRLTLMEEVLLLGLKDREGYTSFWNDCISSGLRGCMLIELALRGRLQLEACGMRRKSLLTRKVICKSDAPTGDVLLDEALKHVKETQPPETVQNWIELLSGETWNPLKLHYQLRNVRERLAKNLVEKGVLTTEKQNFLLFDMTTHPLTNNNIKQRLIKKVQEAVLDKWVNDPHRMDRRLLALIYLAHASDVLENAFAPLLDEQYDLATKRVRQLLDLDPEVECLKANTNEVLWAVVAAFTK
UniProt P08754, whole entry: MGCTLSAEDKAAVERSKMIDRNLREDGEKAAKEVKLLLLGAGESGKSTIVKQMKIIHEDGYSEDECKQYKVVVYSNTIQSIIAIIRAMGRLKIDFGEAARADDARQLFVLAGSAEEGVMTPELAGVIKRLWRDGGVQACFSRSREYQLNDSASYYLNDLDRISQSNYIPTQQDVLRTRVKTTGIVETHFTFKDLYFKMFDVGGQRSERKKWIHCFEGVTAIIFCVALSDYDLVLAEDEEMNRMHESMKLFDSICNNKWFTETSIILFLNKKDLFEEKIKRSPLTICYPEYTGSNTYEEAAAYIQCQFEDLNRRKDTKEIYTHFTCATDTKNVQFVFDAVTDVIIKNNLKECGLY
UniProt P50148, whole entry: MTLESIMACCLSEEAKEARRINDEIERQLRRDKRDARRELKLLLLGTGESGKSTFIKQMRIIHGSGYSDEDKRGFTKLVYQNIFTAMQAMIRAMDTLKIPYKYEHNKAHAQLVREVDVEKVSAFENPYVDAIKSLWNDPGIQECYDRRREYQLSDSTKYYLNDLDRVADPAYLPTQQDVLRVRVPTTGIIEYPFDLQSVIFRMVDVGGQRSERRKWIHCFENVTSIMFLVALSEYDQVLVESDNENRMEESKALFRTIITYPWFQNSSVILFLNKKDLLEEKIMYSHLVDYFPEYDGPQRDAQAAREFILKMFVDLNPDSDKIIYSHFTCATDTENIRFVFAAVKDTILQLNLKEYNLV
UniProt Q9H9Y4: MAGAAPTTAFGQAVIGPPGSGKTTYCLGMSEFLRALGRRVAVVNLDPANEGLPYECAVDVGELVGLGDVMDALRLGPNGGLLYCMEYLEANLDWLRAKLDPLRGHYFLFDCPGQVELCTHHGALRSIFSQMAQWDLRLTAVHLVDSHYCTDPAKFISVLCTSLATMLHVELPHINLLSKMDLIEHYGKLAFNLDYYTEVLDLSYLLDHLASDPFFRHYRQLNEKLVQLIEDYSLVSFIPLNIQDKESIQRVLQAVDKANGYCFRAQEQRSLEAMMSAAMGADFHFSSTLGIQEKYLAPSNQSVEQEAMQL
UniProt Q969Y2: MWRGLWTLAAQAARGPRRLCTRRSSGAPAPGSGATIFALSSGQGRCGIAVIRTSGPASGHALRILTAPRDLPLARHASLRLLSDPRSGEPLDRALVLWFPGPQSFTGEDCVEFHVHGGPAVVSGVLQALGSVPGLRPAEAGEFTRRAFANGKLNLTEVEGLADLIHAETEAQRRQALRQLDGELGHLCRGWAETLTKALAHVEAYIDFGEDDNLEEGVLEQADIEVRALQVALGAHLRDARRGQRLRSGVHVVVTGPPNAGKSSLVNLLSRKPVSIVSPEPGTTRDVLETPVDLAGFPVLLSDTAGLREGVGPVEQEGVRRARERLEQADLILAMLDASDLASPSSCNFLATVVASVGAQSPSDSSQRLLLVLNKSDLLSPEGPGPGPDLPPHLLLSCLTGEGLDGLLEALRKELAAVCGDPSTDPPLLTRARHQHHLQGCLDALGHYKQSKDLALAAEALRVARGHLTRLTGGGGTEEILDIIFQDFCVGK
UniProt P09211: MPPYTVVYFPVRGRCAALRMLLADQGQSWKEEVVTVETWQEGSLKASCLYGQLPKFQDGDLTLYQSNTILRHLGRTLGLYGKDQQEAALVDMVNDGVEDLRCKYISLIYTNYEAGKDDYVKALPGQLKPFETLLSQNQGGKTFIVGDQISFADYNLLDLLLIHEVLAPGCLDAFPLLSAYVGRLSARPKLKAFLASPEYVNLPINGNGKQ
UniProt Q6IC98: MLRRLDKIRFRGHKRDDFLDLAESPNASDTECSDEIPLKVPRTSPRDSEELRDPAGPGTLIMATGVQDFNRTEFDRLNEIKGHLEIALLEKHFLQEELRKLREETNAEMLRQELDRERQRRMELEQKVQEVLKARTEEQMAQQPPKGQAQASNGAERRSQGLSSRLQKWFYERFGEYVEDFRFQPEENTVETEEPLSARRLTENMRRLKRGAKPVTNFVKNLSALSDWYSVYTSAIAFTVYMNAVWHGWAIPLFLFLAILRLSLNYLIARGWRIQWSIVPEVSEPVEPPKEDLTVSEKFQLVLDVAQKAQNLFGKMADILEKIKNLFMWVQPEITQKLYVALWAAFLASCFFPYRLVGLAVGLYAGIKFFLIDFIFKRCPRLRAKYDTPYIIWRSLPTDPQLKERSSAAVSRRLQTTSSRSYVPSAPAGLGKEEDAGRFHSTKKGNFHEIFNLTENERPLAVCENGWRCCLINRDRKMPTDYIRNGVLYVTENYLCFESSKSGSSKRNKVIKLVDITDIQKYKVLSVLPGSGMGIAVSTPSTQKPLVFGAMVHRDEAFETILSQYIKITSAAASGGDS
UniProt Q00403, whole entry: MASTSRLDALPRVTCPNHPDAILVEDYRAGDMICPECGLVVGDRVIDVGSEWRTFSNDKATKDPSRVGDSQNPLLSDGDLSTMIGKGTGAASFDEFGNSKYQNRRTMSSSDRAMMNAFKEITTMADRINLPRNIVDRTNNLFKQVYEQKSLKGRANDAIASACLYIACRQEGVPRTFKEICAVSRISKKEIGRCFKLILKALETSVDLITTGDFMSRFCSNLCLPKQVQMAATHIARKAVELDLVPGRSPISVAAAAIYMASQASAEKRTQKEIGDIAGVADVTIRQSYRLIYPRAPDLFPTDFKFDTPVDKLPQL

Target	dose-dependent thermal stabilisation call
GOSR2 (UniProt O14653)	inactive: 0
GK (UniProt P32189)	inactive: 0
GRN (UniProt P28799)	inactive: 0
GPHN (UniProt Q9NQX3)	inactive: 0
GEMIN6 (UniProt Q8WXD5)	inactive: 0
HDHD3 (UniProt Q9BSH5)	inactive: 0
GSN (UniProt P06396)	inactive: 0
HDAC8 (UniProt Q9BY41)	active: 1
HDAC2 (UniProt Q92769)	inactive: 0
GPSN2 (UniProt Q9NZ01)	inactive: 0
GPR183 (UniProt P32249)	inactive: 0
GOLPH3 (UniProt Q9H4A6)	inactive: 0
GNAI3 (UniProt P08754)	inactive: 0
HCLS1 (UniProt P14317)	inactive: 0
GNAQ (UniProt P50148)	inactive: 0
GPN2 (UniProt Q9H9Y4)	inactive: 0
GHITM (UniProt Q9H3K2)	inactive: 0
GTF3C3 (UniProt Q9Y5Q9)	inactive: 0
GTPBP3 (UniProt Q969Y2)	inactive: 0

A stretch taken from the entries so far:
Target	dose-dependent thermal stabilisation call
GNAI3 (UniProt P08754)	inactive: 0
HCLS1 (UniProt P14317)	inactive: 0
GNAQ (UniProt P50148)	inactive: 0

Later entries.

Target	dose-dependent thermal stabilisation call
GLO1 (UniProt Q04760)	inactive: 0
GOLGA2 (UniProt Q08379)	inactive: 0
GSTP1 (UniProt P09211)	inactive: 0
GM2A (UniProt P17900)	inactive: 0
GOLGA4 (UniProt Q13439)	inactive: 0
GPS1 (UniProt Q13098)	inactive: 0
HERC5 (UniProt Q9UII4)	inactive: 0
GNB2 (UniProt P62879)	inactive: 0
GMNN (UniProt O75496)	inactive: 0
GFM1 (UniProt Q96RP9)	inactive: 0
GRAMD4 (UniProt Q6IC98)	inactive: 0
HBXIP (UniProt O43504)	inactive: 0
GPX1 (UniProt P07203)	inactive: 0
GSR (UniProt P00390)	inactive: 0
GTF2B (UniProt Q00403)	inactive: 0
GNPTAB (UniProt Q3T906)	inactive: 0
HECA (UniProt Q9UBI9)	inactive: 0
GLRX5 (UniProt Q86SX6)	inactive: 0

Reference: the supplement of paper PMC7666118
